Laboratory results published in paper PMC5366945.

Protein sequences, listed by entry. Tags and fused reporters are not part of them.
UniProt O88597: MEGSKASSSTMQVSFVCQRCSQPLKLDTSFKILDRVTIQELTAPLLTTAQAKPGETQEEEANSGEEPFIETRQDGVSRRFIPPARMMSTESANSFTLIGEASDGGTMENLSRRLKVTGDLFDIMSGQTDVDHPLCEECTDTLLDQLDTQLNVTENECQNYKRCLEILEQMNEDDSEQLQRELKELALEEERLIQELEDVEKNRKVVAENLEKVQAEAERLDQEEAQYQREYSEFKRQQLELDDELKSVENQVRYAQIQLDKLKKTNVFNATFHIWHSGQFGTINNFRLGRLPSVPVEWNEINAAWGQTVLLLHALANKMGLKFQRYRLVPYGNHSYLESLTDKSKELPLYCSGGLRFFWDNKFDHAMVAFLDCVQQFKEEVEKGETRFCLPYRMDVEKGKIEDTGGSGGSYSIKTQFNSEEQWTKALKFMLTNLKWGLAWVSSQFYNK
UniProt Q64511: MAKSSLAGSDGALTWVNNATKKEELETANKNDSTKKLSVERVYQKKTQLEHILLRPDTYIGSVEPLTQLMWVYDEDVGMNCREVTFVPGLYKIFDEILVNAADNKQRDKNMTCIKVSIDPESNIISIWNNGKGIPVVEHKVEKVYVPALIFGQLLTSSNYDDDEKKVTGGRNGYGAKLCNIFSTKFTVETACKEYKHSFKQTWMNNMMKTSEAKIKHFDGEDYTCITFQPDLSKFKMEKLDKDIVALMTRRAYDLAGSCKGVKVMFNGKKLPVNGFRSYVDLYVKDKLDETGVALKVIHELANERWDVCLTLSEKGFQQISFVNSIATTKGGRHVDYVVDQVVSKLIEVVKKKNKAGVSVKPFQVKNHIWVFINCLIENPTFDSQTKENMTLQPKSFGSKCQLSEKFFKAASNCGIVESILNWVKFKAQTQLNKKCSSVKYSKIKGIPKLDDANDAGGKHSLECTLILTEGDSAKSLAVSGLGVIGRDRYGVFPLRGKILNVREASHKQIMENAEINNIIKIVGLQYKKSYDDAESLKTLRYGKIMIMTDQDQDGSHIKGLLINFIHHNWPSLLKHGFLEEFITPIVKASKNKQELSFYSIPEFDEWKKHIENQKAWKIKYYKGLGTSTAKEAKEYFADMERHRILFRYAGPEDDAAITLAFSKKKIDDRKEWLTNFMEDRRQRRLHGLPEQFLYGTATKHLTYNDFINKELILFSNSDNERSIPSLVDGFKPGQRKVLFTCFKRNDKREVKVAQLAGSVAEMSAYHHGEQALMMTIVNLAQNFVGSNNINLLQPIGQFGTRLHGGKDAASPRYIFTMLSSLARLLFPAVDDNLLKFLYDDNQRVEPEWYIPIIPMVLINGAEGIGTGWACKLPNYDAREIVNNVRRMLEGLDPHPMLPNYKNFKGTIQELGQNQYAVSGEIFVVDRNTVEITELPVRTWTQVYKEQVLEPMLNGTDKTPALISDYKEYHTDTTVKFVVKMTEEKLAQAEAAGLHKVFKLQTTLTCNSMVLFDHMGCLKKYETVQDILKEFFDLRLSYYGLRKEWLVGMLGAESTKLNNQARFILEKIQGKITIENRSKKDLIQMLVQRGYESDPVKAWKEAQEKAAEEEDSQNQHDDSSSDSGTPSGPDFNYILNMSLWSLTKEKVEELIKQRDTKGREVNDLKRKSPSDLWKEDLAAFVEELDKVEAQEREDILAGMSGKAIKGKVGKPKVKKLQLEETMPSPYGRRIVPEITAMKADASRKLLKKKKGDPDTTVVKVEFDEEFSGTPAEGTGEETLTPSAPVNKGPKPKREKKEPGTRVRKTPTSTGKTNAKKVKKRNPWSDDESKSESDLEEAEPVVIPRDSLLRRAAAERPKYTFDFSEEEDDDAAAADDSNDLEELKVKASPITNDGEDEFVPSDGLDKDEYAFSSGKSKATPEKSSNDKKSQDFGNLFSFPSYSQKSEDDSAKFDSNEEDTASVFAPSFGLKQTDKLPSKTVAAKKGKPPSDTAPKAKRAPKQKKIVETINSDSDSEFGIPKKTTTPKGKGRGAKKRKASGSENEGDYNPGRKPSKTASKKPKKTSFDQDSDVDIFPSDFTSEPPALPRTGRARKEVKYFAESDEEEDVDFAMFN

Molecular target: Flag-tagged Beclin 1 (expressed in NIH3T3 cells) (not stated (human or mouse cDNA cloned)) (UniProt O88597)
Test: affinity purification with mass spectrometry; NIH3T3 cells stably expressing Flag-tagged Beclin 1 or vector; nuclear proteins immuno-isolated with anti-Flag beads; silver-stained SDS-PAGE bands identified by mass spectrometry

For “DNA topoisomerase IIβ (endogenous, NIH3T3) (from UniProt Q64511 1-1612)”, the binding was “binds”.

No constants are given. Whether binding was seen depends on the method and setting. In cells and extracts the contact can be indirect. Here binding means that the protein was enriched with, or labelled near, the bait; the list need not be complete.
